Results: publication PMC8415483
These are yes or no findings as the source states them, for the method shown. Binding seen in cells or lysates may run through a third protein. Some entries that bind do so weakly or less than the wild type.

The chains behind the UniProt entries cited, without tags or fusion partners.
UniProt P63010: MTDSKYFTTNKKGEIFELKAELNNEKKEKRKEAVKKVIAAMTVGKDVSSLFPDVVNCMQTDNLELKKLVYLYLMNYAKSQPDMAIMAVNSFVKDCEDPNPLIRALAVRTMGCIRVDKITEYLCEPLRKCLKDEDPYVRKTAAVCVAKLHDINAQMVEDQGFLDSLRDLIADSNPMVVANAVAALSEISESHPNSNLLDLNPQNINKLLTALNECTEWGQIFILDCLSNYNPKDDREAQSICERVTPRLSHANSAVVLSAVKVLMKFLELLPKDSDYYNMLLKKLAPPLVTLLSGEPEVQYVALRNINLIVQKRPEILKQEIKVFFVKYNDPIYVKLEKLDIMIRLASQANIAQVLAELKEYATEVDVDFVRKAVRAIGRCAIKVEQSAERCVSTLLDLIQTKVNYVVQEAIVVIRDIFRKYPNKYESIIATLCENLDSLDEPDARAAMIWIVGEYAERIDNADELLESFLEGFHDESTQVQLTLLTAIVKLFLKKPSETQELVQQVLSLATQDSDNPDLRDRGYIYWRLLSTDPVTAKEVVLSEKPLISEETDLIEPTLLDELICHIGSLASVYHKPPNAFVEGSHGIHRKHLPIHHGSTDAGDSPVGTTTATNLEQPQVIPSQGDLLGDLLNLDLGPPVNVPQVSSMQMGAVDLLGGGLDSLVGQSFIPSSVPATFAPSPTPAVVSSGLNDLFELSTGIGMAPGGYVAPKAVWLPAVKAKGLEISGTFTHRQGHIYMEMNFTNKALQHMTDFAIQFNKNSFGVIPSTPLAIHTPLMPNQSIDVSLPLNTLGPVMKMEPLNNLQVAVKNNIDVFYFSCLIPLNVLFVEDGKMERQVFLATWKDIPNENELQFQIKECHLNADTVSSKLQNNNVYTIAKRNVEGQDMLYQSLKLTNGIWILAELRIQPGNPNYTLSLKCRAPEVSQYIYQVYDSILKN
UniProt P29067: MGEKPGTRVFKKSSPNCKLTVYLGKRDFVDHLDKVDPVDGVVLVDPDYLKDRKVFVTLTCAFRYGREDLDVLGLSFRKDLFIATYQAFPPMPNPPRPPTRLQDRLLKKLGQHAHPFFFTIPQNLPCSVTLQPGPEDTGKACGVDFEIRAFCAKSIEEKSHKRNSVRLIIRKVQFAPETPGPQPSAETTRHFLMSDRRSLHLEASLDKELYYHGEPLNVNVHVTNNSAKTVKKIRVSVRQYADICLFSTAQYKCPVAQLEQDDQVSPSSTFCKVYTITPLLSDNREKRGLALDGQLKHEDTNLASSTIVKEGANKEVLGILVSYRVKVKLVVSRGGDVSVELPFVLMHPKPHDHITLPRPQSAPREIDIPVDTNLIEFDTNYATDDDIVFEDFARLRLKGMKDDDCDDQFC

How the values were obtained:
CB2R-L133I–Rluc8 (human) = CB2R-L133I–Rluc8 (human) (UniProt P34972); assay: FRET or BRET; CB2R–Rluc8 (donor) and β-arrestin2–Venus (acceptor) co-expressed in adherent HEK 293T cells, 37°C, modified Krebs-Ringer medium pH 7.4, coelenterazine h; stimulus-induced BRET ratio change upon JWH-133 or 2-AG (10 μM, or concentration series)
[1] = biological target: CB2R–Rluc8 (wild-type human CB2 cannabinoid receptor fused to Rluc8) (human) (UniProt P34972); assay: as above
CB2R-Q63R–Rluc8 (human) = CB2R-Q63R–Rluc8 (human) (UniProt P34972); assay: as above
β2-adaptin–Venus = β2-adaptin–Venus (UniProt P63010); assay: FRET or BRET; β-arrestin2–Rluc8 (donor) and β2-adaptin–Venus (acceptor) co-expressed in HEK 293T cells with CB2R; BRET followed after JWH-133 (10 µM), 37°C

β-arrestin2–Venus (from UniProt P29067 1-410)
binding (CB2R-L133I–Rluc8 (human)): binds | binding [1]: binds | binding (CB2R-Q63R–Rluc8 (human)): binds

β-arrestin2–Rluc8 (from UniProt P29067 1-410)
binding (β2-adaptin–Venus): binds
